The values below come from publication PMC9650822.

Amino acid sequences for entries named in this document (tags omitted).
UniProt P68400: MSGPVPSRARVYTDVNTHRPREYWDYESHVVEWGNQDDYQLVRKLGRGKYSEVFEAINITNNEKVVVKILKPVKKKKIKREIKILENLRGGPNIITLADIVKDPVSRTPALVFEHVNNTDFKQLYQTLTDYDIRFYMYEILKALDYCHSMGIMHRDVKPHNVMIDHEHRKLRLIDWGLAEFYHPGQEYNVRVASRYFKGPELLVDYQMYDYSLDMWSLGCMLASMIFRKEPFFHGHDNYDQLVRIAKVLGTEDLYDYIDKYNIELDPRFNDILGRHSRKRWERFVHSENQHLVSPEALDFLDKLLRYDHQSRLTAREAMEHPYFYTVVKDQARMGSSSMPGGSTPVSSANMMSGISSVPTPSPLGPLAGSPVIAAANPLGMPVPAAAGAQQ

Test [1] deals with T1, NOLC1 (human Nopp140) (human (endogenous in KKU-055 and KKU-213)) (UniProt Q14978).
T1 sequence: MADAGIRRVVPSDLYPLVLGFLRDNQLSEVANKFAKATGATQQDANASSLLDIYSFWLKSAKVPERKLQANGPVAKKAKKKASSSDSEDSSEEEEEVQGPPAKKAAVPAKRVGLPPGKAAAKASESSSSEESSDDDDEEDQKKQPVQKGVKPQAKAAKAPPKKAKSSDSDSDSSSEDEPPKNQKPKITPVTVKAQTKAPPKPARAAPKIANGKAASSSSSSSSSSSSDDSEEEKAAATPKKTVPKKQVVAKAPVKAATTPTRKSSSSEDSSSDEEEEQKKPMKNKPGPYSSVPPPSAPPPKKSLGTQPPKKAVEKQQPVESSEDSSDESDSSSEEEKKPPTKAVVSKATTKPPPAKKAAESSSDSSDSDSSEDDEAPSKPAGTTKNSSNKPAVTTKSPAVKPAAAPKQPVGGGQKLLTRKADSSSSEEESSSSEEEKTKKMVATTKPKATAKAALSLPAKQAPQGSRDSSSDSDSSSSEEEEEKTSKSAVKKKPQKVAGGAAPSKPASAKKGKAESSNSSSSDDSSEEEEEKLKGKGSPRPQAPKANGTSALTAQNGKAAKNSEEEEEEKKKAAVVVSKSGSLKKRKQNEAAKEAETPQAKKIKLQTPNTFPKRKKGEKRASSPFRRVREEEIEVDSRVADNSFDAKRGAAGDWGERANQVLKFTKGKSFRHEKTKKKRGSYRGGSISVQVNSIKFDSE
Put plainly: co-IP; control (untreated) KKU-055 and KKU-213 cells; lysate in 50 mM Tris pH 7.4, 150 mM NaCl, 1% Triton X-100, PhosSTOP, protease inhibitors; 300 μg protein with 1 μg anti-NOLC1 antibody, 4 °C, protein A-agarose; Western blot for CK2α.

Test [2] addresses T1, NOLC1 (human Nopp140) (human (endogenous in KKU-055 and KKU-213)). Put plainly: co-IP; data not shown; short-time LAT1-inhibited (JPH203-treated) cells; cell line and time not stated.

No constants are given. Whether binding was seen depends on the method and setting. Binding seen in cells or lysates may run through a third protein. Some binding calls cover weakened binding; strength is not graded here.

Take “CK2α (CSNK2A1), catalytic subunit of protein kinase CK2 (from UniProt P68400 1-391) (enzyme)”: the binding entry in test [1] and in test [2] was “binds” in each case.
